## Library screening results

The values are deposited in ChEMBL (CHEMBL3988442, “University of Dundee, Small-Polar-MMV Screening Library” (2021)).

Results are given as percent effect. The controls that fix the scale are not given in the record; negative values are as filed. Compounds were drawn at random from those tested, without regard to their results.

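Whole-cell assay for inhibitors of Mycobacterium tuberculosis growth, labelled Cornell in the record; the read-out is not stated. The concentration is filed as 10 mM, unlikely as a test dose, so the dose is not known. The record gives no direction; compounds strong in two other growth screens of this library score well above the rest, so higher reads as stronger inhibition. About 53,000 compounds were tested under these conditions; 1.7% (about 900) showed 50% or more at least once.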

| # | Compound | effect |
|---|---|---|
| 1 | `O=C(Cc1c(F)cccc1Cl)Nc1cc(N2CCOCC2)ncn1` | -0.2446% |
| 2 | `COC(=O)c1ccc(C(=O)NCc2ccc(Br)cc2)cn1` | 95.13% |
| 3 | `COc1cccc([C@@H]2CCN(Cc3ccc4ccccc4n3)C[C@H]2O)c1` | 30.53% |
| 4 | `CC(C)(O)CSCCNC(=O)c1cc(F)ccc1F` | -0.6854% |
| 5 | `Cc1nc(CN2CCCC(NCCc3ccccc3Cl)C2)no1` (centres unmarked) | 22.17% |
| 6 | `CC(=O)N1CCn2c(-c3ccccc3)cnc2C12CCNCC2.O=C(O)C(F)(F)F.O=C(O)C(F)(F)F` | -31.98% |
| 7 | `Cc1ccnn1CCC(=O)N1CCCC2(C1)NC(=O)c1ccccc1O2` (centres unmarked) | -26.51% |
| 8 | `CSC(C)(C)CNC(=O)NC1CCN(CC(F)F)CC1` | 0.5923% |
| 9 | `O=C(C1CCCO1)N1CCC2(CC1)COCCN(Cc1cccnc1)C2.O=C(O)C(F)(F)F.O=C(O)C(F)(F)F` (centres unmarked) | 6.454% |
| 10 | `COc1ccc(-c2nc(CSC3CCCCNC3=O)co2)cc1` (centres unmarked) | 27.45% |
| 11 | `CC[C@@H]1N(Cc2ccsc2)CCC[C@]12CCC(=O)N2CCOC.O=C(O)C(F)(F)F` | 13.62% |
| 12 | `O=C(O)c1ccnc(-c2ccnc(COc3cccc(F)c3)n2)c1` | 2.068% |
| 13 | `CCOc1ccc(CN2CCC(c3nc(C)cc(C)n3)C2)cc1CO` (centres unmarked) | 8.468% |
| 14 | `CO[C@H]1CN(C(=O)c2ccc3oc(C)cc3c2)CC[C@@]12CCCO2` | 10.38% |
| 15 | `CCCc1cc(NCCN2CCNC2=O)n2nccc2n1` | -2.697% |
| 16 | `Cc1noc(C)c1C(=O)N1CCSc2ccc(Cl)cc21` | -18.03% |
| 17 | `CCCS(=O)(=O)N1CCC2(CC(C(=O)NCc3cccnc3)=NO2)C1` (centres unmarked) | 10.19% |
| 18 | `CN(CCc1ccncc1)C(=O)C1CSCN1C(=O)CC(C)(C)C` (centres unmarked) | 11.32% |
| 19 | `OCCN(Cc1cccnc1)c1ccc(Cl)cn1` | 28.53% |
| 20 | `Cc1ccnc(N2CCC(C(N)=O)CC2)n1` | -64.82% |
| 21 | `Cc1cc(C(=O)NCCC(=O)N2CCCc3ccccc32)no1` | -5.074% |
| 22 | `O=C(NS(=O)(=O)c1ccccc1Cl)c1cccc2c1OCCO2` | 0.064% |
| 23 | `CNc1nccnc1C1CN(Cc2ccc3[nH]ccc3c2)CCO1` (centres unmarked) | 11.9% |
| 24 | `CCn1cc(CN2CCCN(C(=O)Cc3cccs3)CC2)cn1` | -58.34% |
| 25 | `CCC[C@@H]1CN(C(=O)c2cnc3ccccc3c2)C[C@H]1NS(C)(=O)=O` | 19.67% |
| 26 | `[H][C@@]12CCN(C(=O)c3cscn3)[C@]1([H])CN(C(=O)NC1CC1)C2` | -28.33% |
| 27 | `O=C(NCc1ccnc(C2CCCOC2)n1)c1cccs1` (centres unmarked) | -2.407% |
| 28 | `CC(C1CCN(Cc2cnn(C)c2C2CC2)CC1)N1CCN(C)CC1` (centres unmarked) | 42.86% |
| 29 | `Cc1nn(C)c(C)c1CCC(=O)N1CC(c2cccnc2)C1` | 19.69% |
| 30 | `Cc1ccccc1CN(C)Cc1nc2c(cnn2C)c(=O)[nH]1` | 19.15% |
| 31 | `CCN1CCCc2cc(CN3CCc4c(nc(C)[nH]c4=O)C3)ccc21` | 3.807% |
| 32 | `CN(CC(=O)NCCC#N)C(c1ccccc1)c1ccc(F)cc1` (centres unmarked) | 2.438% |
| 33 | `CCCN1CCC2(C1)c1ccccc1S(=O)(=O)N2C.O=C(O)C(F)(F)F` (centres unmarked) | -12.44% |
| 34 | `Cc1c(CN2CC[C@@H](N3CCC(O)CC3)[C@H](O)C2)[nH]c2ccc(Cl)cc12` | -32.72% |
| 35 | `CN(C)CCN1C(=O)CCC12CCN(Cc1cccs1)CC2.O=C(O)C(F)(F)F.O=C(O)C(F)(F)F` | 5.014% |
| 36 | `COc1ccc(F)c(NCC(C)(C)S(C)(=O)=O)c1` | -22.54% |
| 37 | `CC(=O)N1CCOC(c2cncc(CCC(=O)N(C)C)n2)C1` (centres unmarked) | -24.65% |
| 38 | `COc1ccc(OCCNc2cccc(C(=O)N3CCOCC3)c2)cc1` | 1.827% |
| 39 | `Cc1cc(C)n(CCCN(C)c2cc(N(C)C)ncn2)n1` | -9.139% |
| 40 | `CC1(C)OC(=O)N(CCCC(=O)c2ccc(F)cc2)C1=O` | 8.637% |
| 41 | `O=C(Cc1csc(-c2ccco2)n1)N1CCN(c2ccccc2O)CC1` | 2.113% |
| 42 | `CC(=O)c1ccc(C(=O)N2CCCCC2c2nc[nH]n2)cc1` (centres unmarked) | -30.54% |
| 43 | `O=C(O)C(F)(F)F.[H][C@]12CCN(Cc3ccccn3)C[C@@]1([H])OCCN(C(=O)c1ccsc1)C2` | -14.39% |
| 44 | `COc1ccccc1CC(=O)NCCCN1CCCC1C(=O)N(C)C` (centres unmarked) | 4.946% |
| 45 | `CCN1CCN2CCCN(S(=O)(=O)c3ccc(S(C)(=O)=O)cc3)C2C1=O` (centres unmarked) | 13.98% |
| 46 | `Cc1nnc(CSCc2ccc(OCC(F)(F)F)nc2)o1` | 3.464% |
| 47 | `CC1CCCN(C(=O)CCNS(=O)(=O)c2cccnc2)C1` (centres unmarked) | -9.728% |
| 48 | `COc1ccc(COCC(O)CNC(=O)c2ccc(C)c(F)c2)cc1` (centres unmarked) | 7.038% |
| 49 | `CN(Cc1cccc(OC(F)(F)F)c1)Cc1cnn(C)c1` | -5.287% |
| 50 | `CNC(=O)c1cccc(CCNC(=O)N2CCc3ccccc3C2)c1` | -7.543% |

Repeated from the top, 3 entries:

| Compound | effect |
|---|---|
| `O=C(Cc1c(F)cccc1Cl)Nc1cc(N2CCOCC2)ncn1` | -0.2446% |
| `COC(=O)c1ccc(C(=O)NCc2ccc(Br)cc2)cn1` | 95.13% |
| `COc1cccc([C@@H]2CCN(Cc3ccc4ccccc4n3)C[C@H]2O)c1` | 30.53% |